Results published in patent US20090068182A1 (ARIUS RESEARCH, published 2009).
Results are given in words; binding and its absence hold for the method and conditions named. Binding calls can cover weak binding; strength is not graded here.

Key:
[1] = biological target: AR40A746.2.3 antigen (CD9) in rabbit normal tissues (rabbit); test: IHC on normal spleen tissue
[2] = biological target: AR40A746.2.3 antigen (CD9) in rabbit normal tissues (rabbit); test: IHC on normal tissue micro arrays, 5 micrograms/mL

binding [1]: binds | binding [2]: binds
B1: AR40A746.2.3 monoclonal antibody (hybridoma IDAC 141204-01) (antibody, V domains shown)
VH: DVQLQESGPGLVKPSQSLSLTCTVTGYSITSDYAWNWIRQFPGNKLEWMGYISYSGFTNYNPSLKSRISITRDTSKNQFFLQLSSVTTEDTATYFCEGGNYRYSWFPYWGQGTLVTVSA
VL: DIQMTQTTSSLSASLGDRVTISCSASQGISNYLNWYQQKPDGNVKLLIYYTSSLHSGVPSRFSGSGSGTDYSLTISNLEPEDIATYYCQQYSKLPYTFGGGTKLEIKR
notes: also called IDAC 141204-01 antibody; mAR40A746.2.3
